Laboratory results as given in paper PMC6593079.
Results are given in words; binding and its absence hold for the method and conditions named. In cells and extracts the contact can be indirect. Some binding calls cover weakened binding; strength is not graded here.

Sequences of proteins named here, by UniProt entry; tags and fusion partners are left off. Residues count along the entry.
UniProt P15127, residues 764-1383: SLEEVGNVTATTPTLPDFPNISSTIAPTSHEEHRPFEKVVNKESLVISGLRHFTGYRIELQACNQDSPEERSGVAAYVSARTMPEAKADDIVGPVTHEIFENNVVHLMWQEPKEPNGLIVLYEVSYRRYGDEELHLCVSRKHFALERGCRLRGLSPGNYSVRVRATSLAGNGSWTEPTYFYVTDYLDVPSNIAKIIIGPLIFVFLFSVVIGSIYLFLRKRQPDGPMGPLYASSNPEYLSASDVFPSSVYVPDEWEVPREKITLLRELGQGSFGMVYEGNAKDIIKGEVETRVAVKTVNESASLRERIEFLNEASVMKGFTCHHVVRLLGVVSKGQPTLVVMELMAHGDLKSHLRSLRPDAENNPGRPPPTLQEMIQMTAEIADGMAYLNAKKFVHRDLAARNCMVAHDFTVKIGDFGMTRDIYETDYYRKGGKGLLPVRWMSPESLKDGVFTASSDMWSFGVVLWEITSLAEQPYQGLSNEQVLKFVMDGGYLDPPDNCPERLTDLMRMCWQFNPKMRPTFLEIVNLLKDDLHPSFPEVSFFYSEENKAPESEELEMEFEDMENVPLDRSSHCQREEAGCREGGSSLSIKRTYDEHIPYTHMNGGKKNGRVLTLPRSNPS
UniProt P35570: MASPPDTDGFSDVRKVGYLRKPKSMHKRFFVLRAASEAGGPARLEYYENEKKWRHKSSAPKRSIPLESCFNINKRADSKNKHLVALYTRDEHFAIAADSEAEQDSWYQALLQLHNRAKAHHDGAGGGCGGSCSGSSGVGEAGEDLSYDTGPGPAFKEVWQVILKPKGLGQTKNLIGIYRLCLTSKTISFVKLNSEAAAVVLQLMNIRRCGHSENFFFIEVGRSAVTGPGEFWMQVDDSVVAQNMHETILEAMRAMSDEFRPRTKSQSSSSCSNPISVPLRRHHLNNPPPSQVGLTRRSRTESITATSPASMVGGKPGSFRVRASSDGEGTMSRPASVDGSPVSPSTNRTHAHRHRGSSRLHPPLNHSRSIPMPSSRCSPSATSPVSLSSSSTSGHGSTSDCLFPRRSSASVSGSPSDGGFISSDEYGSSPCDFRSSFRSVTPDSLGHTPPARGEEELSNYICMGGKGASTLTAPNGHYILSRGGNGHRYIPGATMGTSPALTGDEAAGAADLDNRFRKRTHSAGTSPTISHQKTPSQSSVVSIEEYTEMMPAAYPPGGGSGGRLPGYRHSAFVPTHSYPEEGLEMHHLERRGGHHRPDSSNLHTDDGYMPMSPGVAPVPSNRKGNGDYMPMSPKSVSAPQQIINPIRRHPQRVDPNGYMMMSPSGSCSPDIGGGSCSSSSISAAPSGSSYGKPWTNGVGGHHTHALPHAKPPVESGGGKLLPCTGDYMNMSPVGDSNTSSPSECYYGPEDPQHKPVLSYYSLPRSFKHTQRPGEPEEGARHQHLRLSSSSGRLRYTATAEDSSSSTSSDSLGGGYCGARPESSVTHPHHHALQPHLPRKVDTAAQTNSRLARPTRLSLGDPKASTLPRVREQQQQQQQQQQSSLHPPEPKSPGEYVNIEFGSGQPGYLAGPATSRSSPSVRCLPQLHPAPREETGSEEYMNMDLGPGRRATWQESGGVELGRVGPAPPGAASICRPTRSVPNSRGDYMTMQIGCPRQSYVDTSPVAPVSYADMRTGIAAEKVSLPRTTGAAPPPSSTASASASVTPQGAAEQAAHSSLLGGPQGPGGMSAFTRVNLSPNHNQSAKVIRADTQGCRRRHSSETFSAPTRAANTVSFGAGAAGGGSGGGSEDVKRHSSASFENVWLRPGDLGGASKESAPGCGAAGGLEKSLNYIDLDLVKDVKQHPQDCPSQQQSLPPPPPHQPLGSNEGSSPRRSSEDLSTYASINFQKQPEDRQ

Key:
[1] = target: insulin receptor β (rat (endogenous in primary cortical neurons)) (UniProt P15127); assay: co-IP; lysates from primary rat neural cultures (control or treated with ferrous chloride) incubated with primary antibody (anti-IRβ or anti-IRS-1) overnight at 4°C, captured on Protein A and G Agarose, Western blot
[2] = target: insulin signal substrate 1 (rat (endogenous in primary cortical neurons)) (UniProt P35570); assay: as above

## insulin signal substrate 1 (from UniProt P35570 1-1235)
[1]
  binding: binds

## phosphoinositide 3-kinase p85α (from UniProt Q63787-1 1-724)
[2]
  binding: binds
